The nature of the data set: Molecular weight and coupling product components (DAR) by LC-MS. The conditions noted are these: coupling product without HIC purification, protein 4.1 mg/mL. The source says: In this example, liquid chromatography-mass spectrometry (LC-MS) was used to analyze the protein sample for molecular weight. Those skilled in the art can use different models of liquid chromatography (LC) and mass spectrometer (MS) to establish similar analytical methods according to the technical instructions and through experimental exploration. Only representative methods are listed in this example.
In certain specific embodiments, determination of the molecular weight of a protein sample required desaccharification on the sample to remove modifications such as saccharide chains, for example, the sample was processed with glycosidase PNGase F (NEB, #P0705L) at 37° C. for at least 4 h. For example, in all examples of the present invention, when the molecular weight of protein samples was determined, unless otherwise emphasized, the protein samples to be tested were subjected to desaccharification by the glycosidase PNGase F.
In certain specific embodiments, determination of the reduced molecular weight of a protein sample required reduction on the sample, for example, the sample was processed with […] dithiothreitol (DTT) at 37° C. for 10 min. For example, in all examples of the present invention, the samples after reduction were called reduced samples, and the samples without reduction were called non-reduced samples.
Buffer A was 0.1% formic acid FA dissolved in water, and buffer B was 0.1% formic acid FA dissolved in acetonitrile. Injection: about 1 μg; flow rate: 0.3 mL/min; and operation temperature: 80° C. When reduced samples were tested, buffer A and buffer B were mixed within 12 min to form a linear gradient: using 10-60% B for the first 8 min and 80% B for the last 4 min. When non-reduced samples were tested, buffer A and buffer B were mixed within 9 min to form a linear gradient: using 15-60% B for the first 6 min and 80% B for the last 3 min.
Buffer A was 0.1% formic acid FA dissolved in water, and buffer B was 0.1% formic acid FA dissolved in acetonitrile. Injection: about 10 μL; flow rate: 0.2-0.5 mL/min; and operation temperature: 80° C. […]

For the substance “PR006345: SIRPa-Fc fusion protein: ALX148 SIRPa variant fused with human IgG1 hinge and Fc, SEQ ID NO: 149”, the D2% is on record as 88% (Experiment 1, TCEP 1.5 equivalents); 89% (Experiment 2, TCEP 2.0 equivalents); 74% (Experiment 3, TCEP 3.0 equivalents).

Values taken from US20240050583A1, “PROTEIN-DRUG CONJUGATE AND SITE-SPECIFIC CONJUGATING METHOD” (HARBOUR BIOMED (SHANGHAI) CO., LTD, priority 2020, published 2024).
